Assay results reported in the supplement of paper PMC3334620.
Whole data set: some 33,000 sequences, median “E-score (-0.5 to 0.5)” near -0.016, cut for the highest 2% near 0.3. The list shows a part of the results.

target: T1, Yer184c (UniProt P39961); test: PBM E-score (8-mer binding enrichment) (E-score (-0.5 to 0.5)); higher = stronger / more preferred TF binding; conditions: protein concentration: 100 nM; construct: GST-full length
T1 sequence: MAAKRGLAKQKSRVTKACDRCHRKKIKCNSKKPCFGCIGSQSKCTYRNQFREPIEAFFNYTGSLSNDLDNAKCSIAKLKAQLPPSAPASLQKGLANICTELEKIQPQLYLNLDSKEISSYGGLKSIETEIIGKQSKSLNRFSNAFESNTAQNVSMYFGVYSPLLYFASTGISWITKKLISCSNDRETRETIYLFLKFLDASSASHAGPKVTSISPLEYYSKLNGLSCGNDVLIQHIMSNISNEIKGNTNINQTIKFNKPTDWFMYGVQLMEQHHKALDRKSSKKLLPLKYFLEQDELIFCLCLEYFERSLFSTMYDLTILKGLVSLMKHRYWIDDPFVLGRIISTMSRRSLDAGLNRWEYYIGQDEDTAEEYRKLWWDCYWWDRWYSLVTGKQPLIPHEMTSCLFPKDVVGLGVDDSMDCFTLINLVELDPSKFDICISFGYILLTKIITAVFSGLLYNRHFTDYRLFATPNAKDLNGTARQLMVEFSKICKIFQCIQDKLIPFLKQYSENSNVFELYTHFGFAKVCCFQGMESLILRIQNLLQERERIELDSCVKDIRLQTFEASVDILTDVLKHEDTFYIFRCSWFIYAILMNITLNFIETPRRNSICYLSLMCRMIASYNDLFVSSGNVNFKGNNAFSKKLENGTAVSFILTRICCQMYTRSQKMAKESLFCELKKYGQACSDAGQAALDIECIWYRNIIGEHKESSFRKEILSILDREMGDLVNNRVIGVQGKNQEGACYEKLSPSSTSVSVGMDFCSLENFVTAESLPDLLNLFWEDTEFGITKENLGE
How it was run: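 PURExpress in vitro transcription/translation supplied GST-tagged yeast transcription factors, either full-length or DNA-binding domain. Applied at about 100-200 nM to universal all-10-mer Agilent arrays double-stranded by primer extension, the bound protein was detected with fluorescent anti-GST. E-scores, modified Wilcoxon-Mann-Whitney statistics, were given by the Universal PBM Analysis Suite to ungapped eight-base words pooled with their reverse complements after masliner normalisation.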

Row | Sequence | PBM E-score
1 | AACAACGA | 0.112
2 | AGGTCACA | -0.273
3 | GCGGTCAC | 0.00978
4 | AATGACAA | 0.0452
5 | AACTTCTA | 0.0232
6 | AGCGTCGG | 0.173
7 | TAATACCA | 0.113
8 | ACAGAGAG | -0.289
9 | CCAGTTTA | -0.102
10 | CGCAGGCG | -0.106
11 | ACGAGACC | -0.0799
12 | AGCGATAG | -0.285
13 | CCATGTTA | -0.0822
14 | CCTCGTAA | 0.0195
15 | CTTTGAAA | 0.149
16 | TCAGTCCA | -0.332
17 | GCTGTCCA | 0.0967
18 | AACCAATT | 0.107
19 | AAGCTAGT | -0.0205
20 | CGTCAAAC | -0.0185
21 | AACCGCTA | -0.0619
22 | ATCAATAA | 0.237
23 | CGCTGCGC | -0.168
24 | AAGTCGAA | -0.165
25 | ATACGTTG | -0.0986

Row | Sequence | PBM E-score
26 | CGCATCAC | 0.00871
27 | ATCTCGCC | -0.0689
28 | TCCGGCCA | 0.218
29 | TACTTATA | 0.0467
30 | AAAGATCT | -0.144
31 | CATGTCGA | -0.101
32 | TAATTTGA | 0.0115
33 | AAACCTTT | 0.0978
34 | CCAGTTCC | -0.0476
35 | TATAGCCA | 0.0153
36 | CGGCGGCA | 0.143
37 | CGGCAGTC | 0.237
38 | ATCTGGAA | 0.118
39 | CAAGGGGG | -0.373
40 | CCGTACAC | 0.0112
41 | GCCACGCA | -0.191
42 | AAGTGTGA | -0.098
43 | CGTCCTAC | -0.283
44 | TCCTTACA | -0.0191
45 | ATAGTAAT | 0.227
46 | AGACCAGG | -0.194
47 | AGTTACAA | 0.143
48 | AACTAGAT | 0.0952
49 | GACGGCGC | 0.0629
50 | AGCGCAAA | 0.00353

Row | Sequence | PBM E-score
51 | GAACATCC | 0.259
52 | CCCATACC | -0.199
53 | CACGCGTA | -0.0809
54 | CTGTACCA | -0.0943
55 | AATGCTGC | -0.108
56 | ACGAAGCC | 0.0317
57 | GACCACGA | -0.0671
58 | ATGACGTG | -0.171
59 | TCTATGCA | 0.0433
60 | ACACTAAG | -0.0544
61 | GTGCTAGA | -0.216
62 | GGAAAAAC | 0.124
63 | GGCATTCA | -0.00011
64 | GCAGTGAC | -0.134
65 | ATTAGGCA | -0.041
66 | CGAGACGA | -0.0371
67 | GGCGCCCC | -0.0361
68 | AGGAATAT | 0.157
69 | AAACCGGC | 0.313
70 | GCTTGCAC | -0.0414
71 | CCTATCAC | -0.125
72 | CTGTCTCC | -0.00142
73 | ACGCTCCT | -0.189
74 | TACAGGTA | -0.108
75 | AAATCACT | -0.0389

Row | Sequence | PBM E-score
76 | TGCTGAAA | 0.044
77 | AGCGCATC | -0.129
78 | CATCGCGG | -0.0346
79 | ATGCCATG | 0.086
80 | CGCAGCCC | -0.0156
81 | GGACAGCC | 0.146
82 | GGCCGACA | 0.0888
83 | CGGCTTCC | 0.198
84 | AGCGGCCG | 0.315
85 | GCGCTAGC | -0.147
86 | AACCCTCA | -0.154
87 | CACATTGG | -0.101
88 | ATCAATCA | 0.105
89 | CGGCTGAA | 0.251
90 | TAGGTTGA | -0.0777
91 | ATCTGGAG | -0.0217
92 | CCGTGTGC | 0.0431
93 | GCAAGACC | -0.0498
94 | CCTTCGGC | 0.219
95 | CAGGTTGC | -0.129
96 | CCGGCTAG | 0.277
97 | GGCCACCC | -0.0721
98 | GGGAGAAA | -0.0119
99 | GTGTATTA | 0.244
100 | AGTGCACT | 0.067

Excerpt, nos. 83–87
Row | Sequence | PBM E-score
83 | CGGCTTCC | 0.198
84 | AGCGGCCG | 0.315
85 | GCGCTAGC | -0.147
86 | AACCCTCA | -0.154
87 | CACATTGG | -0.101

Going on with the list.

Row | Sequence | PBM E-score
101 | ACTGAACT | -0.0889
102 | AGGCTGCA | 0.0732
103 | GACCTATA | 0.202
104 | CGCGTCTA | -0.135
105 | AGCAACAG | 0.0369
106 | GCTCCGGA | 0.367
107 | ACGGTCTA | -0.0381
108 | ACGTATTG | 0.0567
109 | GCACGGAC | 0.25
110 | TGCTTACA | -0.192
111 | ATACGCCC | -0.178
112 | GAGGGGGC | -0.348
113 | CATTACTA | 0.0248
114 | AGGTTCTA | -0.0623
115 | CAAGCAGC | -0.149
116 | ATCCACGA | 0.0174
117 | CACTGTAA | 0.0883
118 | CTGACACA | -0.0218
119 | ATAAGAAG | 0.192
120 | ACAAGAGT | -0.0446
121 | ATGTTCAG | -0.184
122 | GAAATCAA | 0.00161
123 | CAGTTCGC | 0.0556
124 | AATAAAGC | 0.0919
125 | CATATTGG | -0.0997

Exported with tabs: entries from further up
Row	Sequence	PBM E-score
103	GACCTATA	0.202
104	CGCGTCTA	-0.135

(cont.)

Row | Sequence | PBM E-score
126 | CGATAGAA | -0.0119
127 | CTTGGCGC | -0.0386
128 | ACCGGAGG | 0.144
129 | AGACCCCA | -0.121
130 | TGAGCCCA | -0.253
131 | ATGAGACG | -0.0493
132 | ACAGAGGA | -0.12
133 | ACGGATCG | 0.0937
134 | AGGATCGG | -0.0772
135 | AGACCCGC | -0.0884
136 | TAAATCAA | 0.169
137 | GATCAGCA | 0.00853
138 | GAAAACTC | 0.122
139 | ATTCGTTC | 0.146
140 | ATCTGAGC | 0.0694
141 | AGAAGGAC | -0.191
142 | CTGAGATC | -0.0829
143 | GTTTAGAA | 0.112
144 | GTTCATTA | 0.164
145 | CAGTCTTA | -0.0806
146 | GGCCCGCC | -0.107
147 | GAAAATAA | 0.226
148 | CATTGCTC | 0.032
149 | AACTAAGC | 0.161
150 | ACCAGGTG | -0.17

Row | Sequence | PBM E-score
151 | GAGACCCA | -0.242
152 | AAGTTGGG | -0.198
153 | TACCTCTA | 0.00982
154 | CTCCGAGA | 0.247
155 | CAGGGAGA | -0.138
156 | ACGACGGA | 0.121
157 | GGAAACTA | 0.0665
158 | ATTTCGCG | 0.259
159 | AACTCTGC | -0.213
160 | CGAGGCAG | -0.0339
161 | ATTTCAAC | 0.167
162 | TCATGCGA | 0.00425
163 | CGTGGTCC | -0.0982
164 | CCTATGAC | -0.242
165 | AAAATGCT | 0.106
166 | GGAGTTAA | 0.0757
167 | ATCAGTGA | -0.0339
168 | CGATGTCC | 0.15
169 | CTGGCGAA | -0.131
170 | CCACAGGG | -0.326
171 | AAGTCGAG | -0.158
172 | AGAAGGTA | 0.0854
